Amino acid sequences for entries named in this document (tags omitted).
UniProt Q14191, whole entry, looked up: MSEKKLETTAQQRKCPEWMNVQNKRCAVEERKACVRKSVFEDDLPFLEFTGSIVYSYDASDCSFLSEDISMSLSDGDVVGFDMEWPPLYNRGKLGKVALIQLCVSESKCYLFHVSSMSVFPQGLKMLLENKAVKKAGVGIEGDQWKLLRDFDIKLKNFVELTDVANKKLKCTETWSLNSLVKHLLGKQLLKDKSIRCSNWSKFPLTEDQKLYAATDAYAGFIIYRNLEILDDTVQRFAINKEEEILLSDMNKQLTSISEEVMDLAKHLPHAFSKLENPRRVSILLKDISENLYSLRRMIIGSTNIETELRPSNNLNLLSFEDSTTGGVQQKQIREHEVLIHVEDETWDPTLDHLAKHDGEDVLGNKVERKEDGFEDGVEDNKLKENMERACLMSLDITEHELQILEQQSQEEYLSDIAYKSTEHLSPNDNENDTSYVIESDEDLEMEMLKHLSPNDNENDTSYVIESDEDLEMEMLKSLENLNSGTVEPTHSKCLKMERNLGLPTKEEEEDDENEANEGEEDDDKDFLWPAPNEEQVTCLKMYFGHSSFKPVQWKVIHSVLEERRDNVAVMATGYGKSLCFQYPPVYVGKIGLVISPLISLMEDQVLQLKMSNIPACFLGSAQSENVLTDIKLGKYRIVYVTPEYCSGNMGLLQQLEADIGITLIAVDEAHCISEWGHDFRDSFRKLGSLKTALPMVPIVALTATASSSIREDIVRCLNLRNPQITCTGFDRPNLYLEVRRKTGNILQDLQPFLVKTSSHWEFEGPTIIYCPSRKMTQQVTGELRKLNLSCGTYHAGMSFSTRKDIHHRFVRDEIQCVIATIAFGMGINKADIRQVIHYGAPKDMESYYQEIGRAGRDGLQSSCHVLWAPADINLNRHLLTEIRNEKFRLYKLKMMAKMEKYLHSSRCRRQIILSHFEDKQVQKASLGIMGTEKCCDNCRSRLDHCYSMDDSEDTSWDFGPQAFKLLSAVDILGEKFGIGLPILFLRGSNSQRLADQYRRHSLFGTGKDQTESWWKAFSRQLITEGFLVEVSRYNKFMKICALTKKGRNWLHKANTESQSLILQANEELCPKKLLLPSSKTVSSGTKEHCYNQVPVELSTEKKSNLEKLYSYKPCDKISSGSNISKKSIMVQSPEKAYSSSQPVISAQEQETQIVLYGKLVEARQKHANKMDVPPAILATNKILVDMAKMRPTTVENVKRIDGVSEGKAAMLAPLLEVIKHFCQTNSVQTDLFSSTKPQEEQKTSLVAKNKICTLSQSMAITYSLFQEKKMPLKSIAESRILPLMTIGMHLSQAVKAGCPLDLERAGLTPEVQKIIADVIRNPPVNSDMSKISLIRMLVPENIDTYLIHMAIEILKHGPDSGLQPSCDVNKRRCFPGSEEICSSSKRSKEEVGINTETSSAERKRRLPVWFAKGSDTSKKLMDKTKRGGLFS

Inconclusive results, whose numbers are uncertain, are shown with a selection of clear calls. Where the call is inconclusive, the potency comes from a doubtful curve fit. Activity calls are given as the source filed them. Calls follow the shape of the dose curve; as a rule, active = well fitted curve in the direction sought with a large enough effect; inconclusive = small, poorly fitted or top-dose-only effect, or another doubt; inactive = no such curve, though single readings can be large; an effect the other way counts as inactive or inconclusive.
Molecular target: Bifunctional 3'-5' exonuclease/ATP-dependent helicase WRN (Homo sapiens) (UniProt Q14191)
Assay: qHTS for Inhibitors of WRN Helicase: Confirmatory Assay for Cherry-picked Compounds. (AID 720497); also: nearly all actives have a fitted effect of over 65% in size
Conditions: WRN helicase DNA unwinding, fluorescence kinetic; series mostly up to 57.1 µM; activity, negative = inhibition: at the top concentration
Method in brief: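 Confirmatory retest of cherry-picked hits in 1536-well format. Enzyme (20 nM final) sat with compound for 15 min at room temperature before forked duplex substrate (100 nM) and ATP (2 mM) were added, and unwinding was followed kinetically by red fluorescence.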
For COc1cc(/C=C2\C(=O)N(CCC#N)N=C2C)ccc1OCC(=O)Nc1ccccc1, the Potency was inconclusive: 19.2 µM [inhibitor, partial curve].
For Cc1ccc(N2C(=O)CS(=O)C(c3ccccc3)C2=O)cc1C (stereo unspecified), the Potency was inconclusive: 24.1 µM [inhibitor, partial curve].
In the case of Cc1cc(Cl)c(OCCOCCN2CCCCC2)c(Br)c1, the “activity, negative = inhibition” value was inactive: -2.29%.
With O=C1Nc2ccc3sc4ccccc4c3c2C1=O the Potency was inconclusive: 12.1 µM [inhibitor, partial curve].
For COc1ccc(/C=C2\C(=O)ON=C2c2ccccc2)cc1, the “activity, negative = inhibition” value was inactive: -23.4%.

Test system: not listed separately
Assay: qHTS for Inhibitors of WRN Helicase: Thiazole Orange DNA Binding Counterscreen (AID 720499);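 also: drop in dye fluorescence marks compound binding to DNA; nearly all actives have a fitted effect of over 60% in size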; as to activity change, negative = inhibition: % is scaled to controls: 0 for no effect and ±100 for the full control effect
Conditions: thiazole orange DNA binding displacement, fluorescence; series mostly up to 57.1 µM; activity change, negative = inhibition: at the top concentration
Method in brief: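 Fluorescent ThO–DNA complex (100 nM dye, 50 nM unlabeled DNA) exposed to test compounds for 15 min at room temperature; emission at 530 nm after 480 nm excitation reports dye displacement.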
For CCN1/C(=C/c2ccc3cc(C)ccc3[n+]2C)Sc2ccc3sccc3c21, the Potency was active: 0.215 µM.
With COc1ccccc1OCCSc1nc(-c2ccc(C(C)(C)C)cc2)nc2cc(=O)[nH]n12 the Potency was inconclusive: 27.1 µM [inhibitor, partial curve].
In the case of Cc1ccc(NC2c3ncccc3C(=O)N2c2ccccc2C)cc1C (stereo unspecified), the “activity change, negative = inhibition” value was inactive: -2.86%.
For COCCN(C(=O)COC(=O)c1cc2c(s1)CCC2)c1c(N)n(Cc2ccccc2)c(=O)[nH]c1=O, the Potency was inconclusive: 24.1 µM [inhibitor, partial curve].
For CC1=C(SCc2ccccc2)C(=O)c2ccccc2C1=O, the Potency was inconclusive: 30.4 µM [inhibitor, partial curve, poor fit].
For CC1(C)OC(=O)C(=Cc2ccc(-c3ccc(S(N)(=O)=O)cc3)o2)C(=O)O1, the “activity change, negative = inhibition” value was inactive: -9.84%.
For O=C(Nc1ccc2oc(=O)ccc2c1)c1ccc(-c2cccc([N+](=O)[O-])c2)o1, the Potency was inconclusive: 19.2 µM [inhibitor, partial curve, poor fit].
For COc1cc(-c2nnc(SCc3cc(=O)oc4cc(O)c(O)cc34)o2)cc(OC)c1OC, the Potency was active: 19.2 µM.
With N#Cc1ncc(Cc2ccccc2)nc1C#N the “activity change, negative = inhibition” value was inactive: -7.2%.
For O=C1Nc2ccc3sc4ccccc4c3c2C1=O, the Potency was active: 24.1 µM.
With COc1ccc(/C=C2\C(=O)ON=C2c2ccccc2)cc1 the “activity change, negative = inhibition” value was inactive: -4.32%.
Potency is read from the fitted curve at half-maximal effect.
